Measurements published in paper PMC7818742.
No constants are given. Whether binding was seen depends on the method and setting. In cells and extracts the contact can be indirect. Some binding calls cover weakened binding; strength is not graded here. For some assays here: Sequences can lack the tags named with a protein. Each block holds one molecule with its values, some of them ahead of it.

Chains of the proteins cited; added tags and fusions are not shown.
UniProt O82811: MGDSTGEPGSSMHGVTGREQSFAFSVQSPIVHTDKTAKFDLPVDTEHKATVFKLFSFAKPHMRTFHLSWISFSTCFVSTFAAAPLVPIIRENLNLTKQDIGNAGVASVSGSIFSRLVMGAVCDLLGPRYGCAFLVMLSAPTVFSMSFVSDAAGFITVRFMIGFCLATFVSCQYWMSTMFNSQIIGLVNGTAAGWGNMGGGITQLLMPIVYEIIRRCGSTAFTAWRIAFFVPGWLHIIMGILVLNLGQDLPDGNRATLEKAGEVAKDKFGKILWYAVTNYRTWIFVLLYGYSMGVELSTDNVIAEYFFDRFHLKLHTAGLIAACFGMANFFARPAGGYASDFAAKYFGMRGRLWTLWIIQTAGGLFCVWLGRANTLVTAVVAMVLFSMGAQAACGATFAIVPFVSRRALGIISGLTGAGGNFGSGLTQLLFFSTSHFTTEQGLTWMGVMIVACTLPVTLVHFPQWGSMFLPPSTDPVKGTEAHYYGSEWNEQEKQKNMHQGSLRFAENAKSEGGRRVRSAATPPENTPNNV

How the values were obtained:
[1] = target: T1, AtNRT3.1-Nluc (Arabidopsis thaliana (from the prefix At and the locus AT5G50200)) (UniProt Q9FGS5); assay: split reporter; split-luciferase assay with Nluc and Cluc fusions co-expressed in poplar leaves by syringe agroinfiltration; 2 mM luciferin infiltrated at 5 dpi, luminescence captured by a cooled CCD
T1 sequence: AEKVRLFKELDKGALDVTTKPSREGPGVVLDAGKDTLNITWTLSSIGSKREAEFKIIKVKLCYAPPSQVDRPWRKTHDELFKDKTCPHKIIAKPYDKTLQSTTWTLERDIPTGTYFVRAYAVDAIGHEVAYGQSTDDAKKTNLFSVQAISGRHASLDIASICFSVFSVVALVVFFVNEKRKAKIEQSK

[2] = target: AtWRKY40 (Arabidopsis thaliana (from the prefix At and the locus AT1G80840)) (UniProt Q9SAH7); assay: split reporter; BiFC with YFP^N and YFP^C fusions co-expressed in poplar leaf cells by syringe agroinfiltration; YFP fluorescence observed at 5 dpi, nucleus stained with DAPI

- binding [1]: binds
Molecule: AtNRT2.1-Cluc (from UniProt O82811 1-530)

- binding [2]: binds
B1: AtWRKY40 (protein, UniProt Q9SAH7 1-302)
chain: MDQYSSSLVDTSLDLTIGVTRMRVEEDPPTSALVEELNRVSAENKKLSEMLTLMCDNYNVLRKQLMEYVNKSNITERDQISPPKKRKSPAREDAFSCAVIGGVSESSSTDQDEYLCKKQREETVVKEKVSRVYYKTEASDTTLVVKDGYQWRKYGQKVTRDNPSPRAYFKCACAPSCSVKKKVQRSVEDQSVLVATYEGEHNHPMPSQIDSNNGLNRHISHGGSASTPVAANRRSSLTVPVTTVDMIESKKVTSPTSRIDFPQVQKLLVEQMASSLTKDPNFTAALAAAVTGKLYQQNHTEK
